# Reference: the supplement of paper PMC6411743
# ± gives the standard deviation of the averaged measurements. The list shows a part of the results, in another mix than the full data.
# Tests used:
# Assay in all cases: NP40-soluble protein abundance relative to vehicle (solubility fold change) (ratio); higher = more soluble protein in presence of ATP
# [1] = target: T1, ACOX3 (UniProt O15254)
# T1 sequence (whole entry): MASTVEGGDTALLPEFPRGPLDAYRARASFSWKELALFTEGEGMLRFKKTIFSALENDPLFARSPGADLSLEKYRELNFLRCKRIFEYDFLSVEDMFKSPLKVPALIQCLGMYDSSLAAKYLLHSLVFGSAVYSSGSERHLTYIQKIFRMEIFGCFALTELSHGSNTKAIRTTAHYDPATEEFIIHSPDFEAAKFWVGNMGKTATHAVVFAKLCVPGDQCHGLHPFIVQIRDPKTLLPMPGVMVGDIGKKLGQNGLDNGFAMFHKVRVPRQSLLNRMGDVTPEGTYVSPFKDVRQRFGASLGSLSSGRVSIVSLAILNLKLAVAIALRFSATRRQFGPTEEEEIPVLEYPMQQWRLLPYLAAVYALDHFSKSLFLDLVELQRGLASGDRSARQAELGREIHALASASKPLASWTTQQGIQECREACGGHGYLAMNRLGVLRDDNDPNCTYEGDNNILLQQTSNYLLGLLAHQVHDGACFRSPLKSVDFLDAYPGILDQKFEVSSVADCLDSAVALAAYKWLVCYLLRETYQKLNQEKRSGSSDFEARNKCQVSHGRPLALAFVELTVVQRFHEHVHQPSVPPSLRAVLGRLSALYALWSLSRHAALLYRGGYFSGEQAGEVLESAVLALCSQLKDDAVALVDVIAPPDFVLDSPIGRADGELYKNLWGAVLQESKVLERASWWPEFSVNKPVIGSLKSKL
# Method in brief: (§1)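 Values are fold changes against the detergent-processed vehicle, based on vsn-normalised intensities. Jurkat crude lysate was treated at eight concentrations from 0.1 to 10 mM (10 min at room temperature, then 3 min at 37 °C), solubilised with 0.8% NP40 and benzonase, ultracentrifuged and analysed by TMT-labelled LC-MS/MS over three independent experiments.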
# [2] = target: T2, ADAM10 (UniProt O14672)
# T2 sequence (whole entry): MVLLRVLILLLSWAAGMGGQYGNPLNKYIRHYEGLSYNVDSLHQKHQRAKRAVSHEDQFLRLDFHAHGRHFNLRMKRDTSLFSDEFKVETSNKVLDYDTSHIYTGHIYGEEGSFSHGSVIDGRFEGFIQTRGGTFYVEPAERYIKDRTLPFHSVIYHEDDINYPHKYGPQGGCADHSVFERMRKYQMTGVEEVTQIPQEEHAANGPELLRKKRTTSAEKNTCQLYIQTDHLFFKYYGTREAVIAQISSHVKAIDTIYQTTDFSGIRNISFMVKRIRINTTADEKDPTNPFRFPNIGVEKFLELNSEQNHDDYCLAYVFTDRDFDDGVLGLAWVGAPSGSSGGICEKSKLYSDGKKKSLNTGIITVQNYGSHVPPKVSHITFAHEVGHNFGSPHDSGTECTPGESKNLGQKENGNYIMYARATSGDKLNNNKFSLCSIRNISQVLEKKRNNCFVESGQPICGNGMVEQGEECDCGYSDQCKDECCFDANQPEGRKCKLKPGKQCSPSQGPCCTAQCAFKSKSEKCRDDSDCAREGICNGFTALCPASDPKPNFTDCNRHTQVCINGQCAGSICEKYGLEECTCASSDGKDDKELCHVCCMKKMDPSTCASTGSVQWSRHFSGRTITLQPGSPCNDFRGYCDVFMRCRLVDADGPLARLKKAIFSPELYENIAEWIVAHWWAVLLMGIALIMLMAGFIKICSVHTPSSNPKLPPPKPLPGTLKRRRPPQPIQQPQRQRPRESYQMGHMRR
# Method in brief: as §1
# [3] = target: T3, C2CD2L (UniProt O14523)
# T3 sequence (whole entry): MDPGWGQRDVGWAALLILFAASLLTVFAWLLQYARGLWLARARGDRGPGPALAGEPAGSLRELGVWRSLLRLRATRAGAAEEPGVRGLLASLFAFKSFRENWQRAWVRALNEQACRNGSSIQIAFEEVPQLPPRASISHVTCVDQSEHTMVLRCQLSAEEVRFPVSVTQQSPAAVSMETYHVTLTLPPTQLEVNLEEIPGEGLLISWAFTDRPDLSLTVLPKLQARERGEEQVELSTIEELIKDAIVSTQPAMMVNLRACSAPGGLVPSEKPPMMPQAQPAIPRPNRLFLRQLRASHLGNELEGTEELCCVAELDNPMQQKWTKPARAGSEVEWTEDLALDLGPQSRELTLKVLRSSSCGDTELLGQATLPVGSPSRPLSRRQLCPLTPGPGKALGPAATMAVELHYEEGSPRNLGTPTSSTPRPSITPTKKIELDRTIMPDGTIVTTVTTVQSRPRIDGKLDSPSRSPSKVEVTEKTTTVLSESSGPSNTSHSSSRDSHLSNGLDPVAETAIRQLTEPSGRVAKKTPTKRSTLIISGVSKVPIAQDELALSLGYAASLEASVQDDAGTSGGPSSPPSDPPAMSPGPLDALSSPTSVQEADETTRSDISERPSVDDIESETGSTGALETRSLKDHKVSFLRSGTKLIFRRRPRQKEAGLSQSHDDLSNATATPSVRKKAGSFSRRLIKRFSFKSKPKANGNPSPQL
# Method in brief: as §1
# [4] = target: T4, FANCG (UniProt O15287)
# T4 sequence (whole entry): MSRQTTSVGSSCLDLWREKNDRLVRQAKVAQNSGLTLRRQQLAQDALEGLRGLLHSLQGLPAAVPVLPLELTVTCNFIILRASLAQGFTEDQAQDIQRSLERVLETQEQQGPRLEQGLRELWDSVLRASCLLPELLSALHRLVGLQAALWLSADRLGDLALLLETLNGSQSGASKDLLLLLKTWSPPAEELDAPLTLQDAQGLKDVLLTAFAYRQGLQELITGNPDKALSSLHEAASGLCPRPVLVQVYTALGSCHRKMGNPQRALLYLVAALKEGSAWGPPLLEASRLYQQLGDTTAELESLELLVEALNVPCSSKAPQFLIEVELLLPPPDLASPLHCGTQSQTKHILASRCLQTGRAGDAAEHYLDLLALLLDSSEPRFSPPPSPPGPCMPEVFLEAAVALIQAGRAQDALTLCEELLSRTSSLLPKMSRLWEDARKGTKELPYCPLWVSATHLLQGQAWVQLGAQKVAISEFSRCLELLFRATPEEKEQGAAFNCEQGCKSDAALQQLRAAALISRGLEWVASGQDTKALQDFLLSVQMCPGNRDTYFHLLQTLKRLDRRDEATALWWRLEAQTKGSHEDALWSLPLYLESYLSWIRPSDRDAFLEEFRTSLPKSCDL
# Method in brief: as §1
# [5] = target: T5, HMGB3 (UniProt O15347)
# T5 sequence (whole entry): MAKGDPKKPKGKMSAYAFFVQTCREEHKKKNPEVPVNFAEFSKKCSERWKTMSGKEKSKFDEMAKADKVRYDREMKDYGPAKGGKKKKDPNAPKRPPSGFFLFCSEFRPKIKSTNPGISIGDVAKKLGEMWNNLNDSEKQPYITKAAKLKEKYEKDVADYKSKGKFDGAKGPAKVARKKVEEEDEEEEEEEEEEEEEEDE
# Method in brief: as §1
# [6] = target: T6, LCMT2 (UniProt O60294)
# T6 sequence (whole entry): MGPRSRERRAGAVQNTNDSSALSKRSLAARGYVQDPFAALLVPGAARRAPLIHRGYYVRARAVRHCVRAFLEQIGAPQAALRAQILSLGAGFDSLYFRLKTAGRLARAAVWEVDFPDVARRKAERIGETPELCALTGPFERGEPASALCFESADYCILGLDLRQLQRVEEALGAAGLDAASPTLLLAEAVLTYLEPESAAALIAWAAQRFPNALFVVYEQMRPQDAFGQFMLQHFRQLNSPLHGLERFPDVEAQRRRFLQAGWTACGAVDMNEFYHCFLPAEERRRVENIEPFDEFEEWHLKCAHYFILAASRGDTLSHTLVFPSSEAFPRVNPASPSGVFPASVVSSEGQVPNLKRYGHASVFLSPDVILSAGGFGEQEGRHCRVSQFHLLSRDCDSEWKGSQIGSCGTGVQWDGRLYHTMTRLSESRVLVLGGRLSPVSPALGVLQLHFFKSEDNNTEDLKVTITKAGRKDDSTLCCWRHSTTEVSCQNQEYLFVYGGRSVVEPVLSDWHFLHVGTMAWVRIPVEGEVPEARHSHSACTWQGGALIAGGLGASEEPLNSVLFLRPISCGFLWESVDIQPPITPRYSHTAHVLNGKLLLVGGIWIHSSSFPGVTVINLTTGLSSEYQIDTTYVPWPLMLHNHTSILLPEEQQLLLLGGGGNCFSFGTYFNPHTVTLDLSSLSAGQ
# Method in brief: as §1
smiles,measurement,setting,value
Nc1ncnc2c1ncn2[C@@H]1O[C@H](COP(=O)(O)OP(=O)(O)OP(=O)(O)O)[C@@H](O)[C@H]1O [adenosine triphosphate],NP40-soluble protein abundance,[1]; concentration: 1mM,1 ± 0.068
same,NP40-soluble protein abundance,[1]; concentration: 2mM,0.999 ± 0.076
same,NP40-soluble protein abundance,[1]; concentration: 4mM,1.01 ± 0.073
same,NP40-soluble protein abundance,[1]; concentration: 6mM,0.982 ± 0.066
same,NP40-soluble protein abundance,[1]; concentration: 8mM,1.01 ± 0.041
same,NP40-soluble protein abundance,[1]; concentration: 10mM,0.985 ± 0.045
same,NP40-soluble protein abundance,[2]; concentration: 1mM,0.973 ± 0.024
same,NP40-soluble protein abundance,[2]; concentration: 2mM,0.984 ± 0.044
same,NP40-soluble protein abundance,[2]; concentration: 4mM,0.945 ± 0.043
same,NP40-soluble protein abundance,[2]; concentration: 6mM,0.979 ± 0.043
same,NP40-soluble protein abundance,[2]; concentration: 8mM,0.933 ± 0.037
same,NP40-soluble protein abundance,[2]; concentration: 10mM,0.949 ± 0.061
same,NP40-soluble protein abundance,[3]; concentration: 1mM,1 ± 0.13
same,NP40-soluble protein abundance,[3]; concentration: 2mM,1.05 ± 0.019
same,NP40-soluble protein abundance,[3]; concentration: 4mM,1.07 ± 0.028
same,NP40-soluble protein abundance,[3]; concentration: 6mM,1.05 ± 0.072
same,NP40-soluble protein abundance,[3]; concentration: 8mM,0.982 ± 0.031
same,NP40-soluble protein abundance,[3]; concentration: 10mM,1 ± 0.033
same,NP40-soluble protein abundance,[4]; concentration: 1mM,1.16 ± 0.053
same,NP40-soluble protein abundance,[4]; concentration: 2mM,1.05 ± 0.093
same,NP40-soluble protein abundance,[4]; concentration: 4mM,1.11 ± 0.22
same,NP40-soluble protein abundance,[4]; concentration: 6mM,0.927 ± 0.12
same,NP40-soluble protein abundance,[4]; concentration: 8mM,1.01 ± 0.22
same,NP40-soluble protein abundance,[4]; concentration: 10mM,1.09 ± 0.088
same,NP40-soluble protein abundance,[5]; concentration: 1mM,1.01 ± 0.26
same,NP40-soluble protein abundance,[5]; concentration: 2mM,0.915 ± 0.16
same,NP40-soluble protein abundance,[5]; concentration: 4mM,0.906 ± 0.2
same,NP40-soluble protein abundance,[5]; concentration: 6mM,0.951 ± 0.19
same,NP40-soluble protein abundance,[5]; concentration: 8mM,0.939 ± 0.085
same,NP40-soluble protein abundance,[5]; concentration: 10mM,0.78 ± 0.28
same,NP40-soluble protein abundance,[6]; concentration: 1mM,0.978 ± 0.078
same,NP40-soluble protein abundance,[6]; concentration: 2mM,1.02 ± 0.03
same,NP40-soluble protein abundance,[6]; concentration: 4mM,1.04 ± 0.032

# 2 records drawn at random from those above, as already listed:
smiles,measurement,setting,value
Nc1ncnc2c1ncn2[C@@H]1O[C@H](COP(=O)(O)OP(=O)(O)OP(=O)(O)O)[C@@H](O)[C@H]1O [adenosine triphosphate],NP40-soluble protein abundance,[1]; concentration: 1mM,1 ± 0.068
same,NP40-soluble protein abundance,[6]; concentration: 2mM,1.02 ± 0.03
